Reference: PubChem BioAssay AID686938 (Drosophila RNAi Screening Center, 2013)
The deposit covers about 23,000 reagents; this is a random part of those that have a named target and a result. Over the whole deposit, 75 (0.33%) are marked active. 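Raw plate signals without normalisation; calls rest on plate z-scores that were not deposited; ratio present for only 364 wells.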 Unmarked entries are inactive. Names joined by + are all predicted targets of the reagent. Not stated in the record: the dose of the treatment.

- Test: 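Looking for CRAC channel components and the factors controlling them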 (primary screen)
- System: Drosophila S2R+ cells
- Knock-down reagent: long dsRNA against Drosophila genes, about 0.25 µg dsRNA per well, roughly 10,000 cells
- Timing: 5 days of knock-down before the calcium assay
- Treatment: thapsigargin (SERCA pump blocker) to empty calcium stores; entry signal taken 4 min after adding it
- Read-out: 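Duplicate raw fluo-4 intensities per well from a plate reader, at rest and four minutes after thapsigargin emptied calcium stores; entry-to-rest ratio filled for only some wells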
- Reading the numbers: calcium entry signal: higher = stronger calcium signal after store depletion; resting calcium signal: higher = higher resting calcium signal
- Active means: 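Hit if the duplicate-averaged plate z-score for entry over resting signal is under −3; wells with weak total dye signal (Fmax z < −2) or more than 5 off-targets removed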
- Calls: active = strongly reduced calcium entry; inactive = no strong reduction

gene knocked down,DRSC id,"calcium entry signal, replicate 1 (fluorescence units)","calcium entry signal, replicate 2 (fluorescence units)","resting calcium signal, replicate 1 (fluorescence units)","resting calcium signal, replicate 2 (fluorescence units)"
Map205,DRSC16732,3.09e7,3.22e7,1.49e7,1.65e7
CG2267,DRSC15435,4.36e7,4.63e7,2.19e7,2.08e7
CG14346,DRSC00376,3.70e7,4.07e7,1.74e7,1.85e7
CG3635,DRSC03729,3.73e7,5.57e7,1.87e7,2.38e7
CG6753,DRSC16108,3.49e7,3.69e7,1.90e7,1.93e7
D,DRSC11132,4.63e7,6.21e7,2.12e7,2.64e7
CG34045,DRSC05787,3.16e7,5.02e7,1.41e7,2.28e7
CG33230,DRSC08602,3.27e7,2.58e7,1.48e7,1.28e7
Msp300,DRSC00854,3.63e7,3.47e7,1.95e7,1.63e7
Msp300,DRSC00856,3.43e7,3.82e7,1.80e7,1.80e7
Msp300,DRSC00857,3.57e7,4.03e7,2.02e7,1.93e7
Msp300,DRSC00858,3.24e7,3.92e7,1.86e7,1.79e7
Msp300,DRSC02360,3.81e7,4.45e7,1.93e7,2.11e7
Msp300,DRSC03369,3.74e7,,1.95e7,
Msp300,DRSC03370,4.10e7,4.20e7,2.11e7,1.96e7
ksh,DRSC19554,3.57e7,4.56e7,1.90e7,1.91e7
CG42789,DRSC13793,3.04e7,1.84e7,1.33e7,9.91e6
Nemp,DRSC20206,2.92e7,3.03e7,1.49e7,1.40e7
CG11267,DRSC09833,2.11e7,2.93e7,1.12e7,1.19e7
Send2,DRSC01906,4.21e7,3.42e7,1.96e7,1.68e7
CG10137,DRSC02014,3.60e7,,1.79e7,
CG10137,DRSC02015,4.92e7,5.05e7,2.31e7,2.24e7
asRNA:CR30267 + CG42260,DRSC03953,3.96e7,6.86e7,1.86e7,3.05e7
Alms1a,DRSC18558,3.08e7,4.44e7,1.60e7,1.94e7
CG33689,DRSC09424,3.29e7,3.39e7,1.69e7,1.78e7
Lim3,DRSC02475,4.96e7,5.80e7,2.56e7,2.46e7
Lim3,DRSC03363,3.57e7,3.43e7,2.18e7,2.04e7
Lim3,DRSC22183,3.85e7,7.64e7,1.82e7,3.75e7
Lim3,DRSC22650,4.27e7,3.80e7,2.44e7,1.71e7
Lim3,DRSC23034,3.07e7,4.00e7,1.68e7,1.81e7
tgo,DRSC17077,4.21e7,4.33e7,1.81e7,1.99e7
Nup37,DRSC14419,3.59e7,6.09e7,1.83e7,2.43e7
CG14757,DRSC06492,3.78e7,2.78e7,1.74e7,1.72e7
CG13305,DRSC09975,3.66e7,3.64e7,1.76e7,1.52e7
Cyp313b1,DRSC16629,4.44e7,3.52e7,2.15e7,1.75e7
Mst84Db,DRSC12542,3.12e7,2.12e7,1.64e7,1.09e7
Mst84Db,DRSC12598,3.37e7,2.40e7,1.77e7,1.19e7
Atg5,DRSC18112,4.02e7,3.89e7,1.79e7,1.68e7
tw,DRSC18537,3.85e7,5.46e7,1.75e7,2.36e7
ppk,DRSC03595,5.73e7,3.39e7,2.31e7,1.64e7
laza,DRSC11661,3.05e7,4.56e7,1.55e7,3.29e7
laza,DRSC23330,3.41e7,3.65e7,1.81e7,1.62e7
Ets98B,DRSC16666,2.73e7,2.68e7,1.42e7,1.36e7
RecQ4,DRSC11265,3.10e7,3.27e7,1.42e7,1.52e7
CG3770,DRSC04416,2.97e7,,1.36e7,
flip,DRSC12326,3.10e7,5.21e7,1.61e7,2.41e7
CG11275,DRSC04095,3.42e7,6.07e7,1.52e7,2.42e7
CG30345,DRSC05144,2.57e7,3.73e7,1.30e7,1.63e7
CG1607,DRSC15130,1.95e7,2.31e7,1.02e7,1.21e7
Kdm3,DRSC16393,2.64e7,2.80e7,1.49e7,1.60e7
Blos1,DRSC05970,2.27e7,4.35e7,1.26e7,1.72e7
FBXO11,DRSC16497,3.39e7,4.75e7,1.55e7,2.03e7
Psi,DRSC07519,3.43e7,2.92e7,1.42e7,1.35e7
CG5554,DRSC04513,4.48e7,5.22e7,2.32e7,2.48e7
Wdr92,DRSC10187,4.22e7,7.13e7,2.20e7,2.82e7
CG8841,DRSC07286,4.32e7,4.18e7,1.68e7,1.80e7
Mst57Db,DRSC21551,3.35e7,4.76e7,1.84e7,1.99e7
CG2611,DRSC02710,4.20e7,,2.12e7,
Fatp (retired record),DRSC03054,4.37e7,,2.19e7,
htk,DRSC20029,1.77e7,2.93e7,1.46e7,1.20e7
htk,DRSC20031,3.27e7,3.74e7,1.57e7,1.61e7
Vha100-1,DRSC14148,3.07e7,3.77e7,1.48e7,2.09e7
ACXC,DRSC00846,5.37e7,3.32e7,2.30e7,1.55e7
Mur89F,DRSC15544,3.52e7,4.87e7,1.62e7,5.60e7
eas,DRSC20329,3.93e7,3.08e7,2.07e7,1.42e7
Rpn12R,DRSC09842,5.08e7,6.35e7,2.24e7,2.30e7
CG11596,DRSC18540,3.30e7,3.77e7,1.50e7,1.85e7
CG33777,DRSC08107,4.32e7,3.23e7,2.29e7,1.56e7
PH4alphaNE1,DRSC16546,3.69e7,4.38e7,1.65e7,1.95e7
CG32483,DRSC07902,5.11e7,4.59e7,2.61e7,2.00e7
PEK,DRSC12361,2.62e7,2.76e7,1.37e7,1.58e7
nub,DRSC01260,3.06e7,3.01e7,1.55e7,1.24e7
nub,DRSC02498,4.51e7,3.38e7,2.02e7,1.51e7
nub,DRSC02499,5.38e7,3.30e7,2.25e7,1.54e7
nub,DRSC03583,4.72e7,3.27e7,2.07e7,1.62e7
nub,DRSC23066,6.59e7,3.32e7,3.11e7,1.41e7
